Source: paper PMC8895403 (Journal of the American Chemical Society, 2022)

Test: general procedure: Fmoc solid-phase peptide synthesis; ChemMatrix Rink amide resin (0.4-0.6 mmol/g); HCTU/OxymaPure/DIPEA
Conditions: whole synthesis; for crude yield: scale of the general procedure 0.05-0.1 mmol

AVSSGGSGCWA-NH2
crude mass: 85.2 mg | crude yield: 78%

KVSSGGCWA-NH2
crude mass: 53.1 mg | crude yield: 90%

AVSSGGCWA-NH2
crude mass: 74.8 mg | crude yield: 79%

ARNVGLVGMCA-NH2
crude mass: 85 mg | crude yield: 68%

AWWTNDFCA-NH2
crude mass: 175 mg | crude yield: 95%

AVNEKHYCWA-NH2
crude mass: 131 mg | crude yield: 98%

AWWEDRGPPCA-NH2
crude mass: 139 mg | crude yield: 83%

Ac-KVSSGGCWA-NH2
crude mass: 34 mg | crude yield: 56%

AWWTNDFCACA-NH2
crude mass: 154 mg | crude yield: 86%
